Results are given in words; binding and its absence hold for the method and conditions named. Some results given as binding are weak or reduced against the parent protein; the word gives no strength. Tags and fused reporters may be left off the sequences shown.
Assays:
[1] = target: VEGFR-2 (Flk-1/KDR) receptor (human) (UniProt P35968); assay: summary statement; assay not described
[2] = target: VEGFR-2 (Flk-1/KDR) receptor (human) (UniProt P35968); assay: HUVECs treated with 50 ng/ml for 2 min; Western blot of phospho-VEGFR-2

Protein sequences, listed by entry. Tags and fused reporters are not part of them. Residues count along the entry.
UniProt P35968, residues 20-1356: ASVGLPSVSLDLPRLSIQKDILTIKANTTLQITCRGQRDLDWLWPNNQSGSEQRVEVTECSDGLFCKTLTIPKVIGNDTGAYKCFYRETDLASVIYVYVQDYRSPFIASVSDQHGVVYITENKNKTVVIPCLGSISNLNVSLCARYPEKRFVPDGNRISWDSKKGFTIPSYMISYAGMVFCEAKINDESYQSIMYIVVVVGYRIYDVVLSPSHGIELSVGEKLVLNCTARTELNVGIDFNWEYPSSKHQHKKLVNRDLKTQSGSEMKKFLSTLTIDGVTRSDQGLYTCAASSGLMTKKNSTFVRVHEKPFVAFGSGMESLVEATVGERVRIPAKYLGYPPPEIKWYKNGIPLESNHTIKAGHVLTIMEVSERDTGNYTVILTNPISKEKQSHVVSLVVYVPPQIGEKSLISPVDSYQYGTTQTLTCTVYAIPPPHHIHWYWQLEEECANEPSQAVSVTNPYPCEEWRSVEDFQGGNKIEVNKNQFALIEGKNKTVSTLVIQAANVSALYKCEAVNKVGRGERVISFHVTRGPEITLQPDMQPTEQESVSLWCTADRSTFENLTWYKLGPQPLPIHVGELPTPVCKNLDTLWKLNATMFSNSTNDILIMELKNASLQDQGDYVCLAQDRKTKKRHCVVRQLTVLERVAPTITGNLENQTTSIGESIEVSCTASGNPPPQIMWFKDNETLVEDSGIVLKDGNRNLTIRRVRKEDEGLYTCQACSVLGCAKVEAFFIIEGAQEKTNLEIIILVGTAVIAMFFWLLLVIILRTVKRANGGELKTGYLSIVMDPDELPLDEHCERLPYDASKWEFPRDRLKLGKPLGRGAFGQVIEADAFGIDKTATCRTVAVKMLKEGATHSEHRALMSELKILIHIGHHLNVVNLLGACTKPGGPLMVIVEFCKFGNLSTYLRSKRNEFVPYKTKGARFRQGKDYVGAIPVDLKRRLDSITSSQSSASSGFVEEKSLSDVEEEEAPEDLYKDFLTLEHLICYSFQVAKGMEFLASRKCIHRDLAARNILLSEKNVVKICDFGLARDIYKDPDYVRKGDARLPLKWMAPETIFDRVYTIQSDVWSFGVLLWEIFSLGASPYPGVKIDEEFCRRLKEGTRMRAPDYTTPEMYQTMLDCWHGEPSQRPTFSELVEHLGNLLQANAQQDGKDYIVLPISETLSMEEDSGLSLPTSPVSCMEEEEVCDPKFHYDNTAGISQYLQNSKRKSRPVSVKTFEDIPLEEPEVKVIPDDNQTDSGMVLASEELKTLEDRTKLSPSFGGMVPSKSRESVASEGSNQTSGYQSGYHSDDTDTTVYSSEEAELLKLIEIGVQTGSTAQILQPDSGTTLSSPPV

binding [1] | binding [2] | Binder
binds |  | recombinant His-tagged VEGF120 (ligand, not shown: small tags and cut ends) APTTEGEQKSHEVIKFMDVYQRSYCRPIETLVDIFQEYPDEIEYIFKPSCVPLMRCAGCCNDEALECVPTSESNITMQIMRIKPHQSQHIGEMSFLQHSRCECRPKKDRTKPEKCDKPRR
binds | binds | recombinant His-tagged VEGF205* (ligand, not shown: small tags and cut ends) APTTEGEQKSHEVIKFMDVYQRSYCRPIETLVDIFQEYPDEIEYIFKPSCVPLMRCAGCCNDEALECVPTSESNITMQIMRIKPHQSQHIGEMSFLQHSRCECRPKKDRTKPEKKSVRGKGKGQKRKRKKSRFKSWSVYVGAAAV
binds |  | recombinant VEGF144 (ligand) APTTEGEQKSHEVIKFMDVYQRSYCRPIETLVDIFQEYPDEIEYIFKPSCVPLMRCAGCCNDEALECVPTSESNITMQIMRIKPHQSQHIGEMSFLQHSRCECRPKKDRTKPEKKSVRGKGKGQKRKRKKSRFKSWSVCDKPRR
